Our source for the binding values is article PMC12374962.

Protein sequences, listed by entry. Tags and fused reporters are not part of them. Lines headed by an entry give the natural chain unless they say otherwise; changes in a name come on top.
UniProt P49023: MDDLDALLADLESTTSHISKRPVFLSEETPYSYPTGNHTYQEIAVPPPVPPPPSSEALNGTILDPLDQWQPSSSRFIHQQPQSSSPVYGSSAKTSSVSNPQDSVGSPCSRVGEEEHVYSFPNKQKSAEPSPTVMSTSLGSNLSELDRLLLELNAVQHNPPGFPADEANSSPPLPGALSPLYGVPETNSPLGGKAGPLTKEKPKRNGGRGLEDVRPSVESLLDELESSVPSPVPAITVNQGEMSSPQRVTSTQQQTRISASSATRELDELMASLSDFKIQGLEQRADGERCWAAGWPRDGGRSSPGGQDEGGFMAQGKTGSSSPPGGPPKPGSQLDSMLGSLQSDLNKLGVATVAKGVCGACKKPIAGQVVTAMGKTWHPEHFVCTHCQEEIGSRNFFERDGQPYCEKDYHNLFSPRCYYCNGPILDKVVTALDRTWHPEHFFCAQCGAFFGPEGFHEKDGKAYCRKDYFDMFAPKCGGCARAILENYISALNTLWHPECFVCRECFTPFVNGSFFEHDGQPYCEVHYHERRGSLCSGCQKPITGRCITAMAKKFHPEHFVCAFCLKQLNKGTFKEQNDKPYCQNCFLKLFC
UniProt P07339: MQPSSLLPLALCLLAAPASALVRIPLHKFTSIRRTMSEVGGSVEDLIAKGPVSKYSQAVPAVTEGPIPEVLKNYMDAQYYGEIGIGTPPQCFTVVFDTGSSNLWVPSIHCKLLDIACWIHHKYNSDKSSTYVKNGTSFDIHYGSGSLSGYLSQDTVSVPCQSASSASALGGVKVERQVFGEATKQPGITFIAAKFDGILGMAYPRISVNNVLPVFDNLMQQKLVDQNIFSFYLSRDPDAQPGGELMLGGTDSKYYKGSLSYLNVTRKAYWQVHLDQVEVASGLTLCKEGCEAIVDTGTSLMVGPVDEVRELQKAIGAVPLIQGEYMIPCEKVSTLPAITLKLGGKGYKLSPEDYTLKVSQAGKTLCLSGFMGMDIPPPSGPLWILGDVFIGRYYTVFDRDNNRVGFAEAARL

No constants are given. Whether binding was seen depends on the method and setting. In cells and extracts the contact can be indirect. A result given as binding can be weak or reduced; the word gives no strength.

Test [1] has as its target paxillin (human (endogenous in LoVo and HCT116)) (UniProt P49023). Briefly: co-IP; endogenous proteins in PDC lysates (IP lysis buffer with protease and phosphatase inhibitors); supernatant incubated with anti-paxillin or anti-Y118-paxillin antibody overnight at 4 °C, protein A/G agarose beads 2 h at 4 °C, normal mouse immunoglobulin as negative control, detection by western blot.

Test [2] concerns the target paxillin phosphorylated at tyrosine 118 (human (endogenous in LoVo and HCT116)) (UniProt P49023). The test is described as above.

For “cathepsin D (from UniProt P07339) (enzyme)”, the binding result in test [1] and in test [2] was “binds” in each case.
